# Data: patent US10774143 (LA JOLLA INSTITUTE FOR ALLERGY AND IMMUNOLOGY, dated 2020)
# Target: T1, SWAP-70-like adaptor of T cells (SLAT), endogenous mouse protein (mouse, UniProt Q8C2K1 1-630)
# T1 construct: Endogenous full-length protein, immunoprecipitated or pulled down from lysates of stimulated mouse T cells; also called Def6; IBP
# Assay: GST pull-down of SLAT from stimulated T cell lysates
binder,measurement,value
"GST-IP3R1-f2.1 Δ18 (residues 346-490 deleted of residues 400-417) (other, not shown: a dimerising Fc or GST; small tags and cut ends) NAQEKMVYSLVSVPEGNDISSIFELDPTTLRGGDSLVPRNSYVRLRHLCTNTWVIGTSPVKEDKEAFAIVPVSPAEVRDLDFANDASKVLGSIAGKLEKGTITQNERRSVTKLLEDLVYFVTGGTNS",binding result,no binding
